This is an account of results in article PMC6704147.

Protein sequences, listed by entry. Tags and fused reporters are not part of them.
UniProt O35613: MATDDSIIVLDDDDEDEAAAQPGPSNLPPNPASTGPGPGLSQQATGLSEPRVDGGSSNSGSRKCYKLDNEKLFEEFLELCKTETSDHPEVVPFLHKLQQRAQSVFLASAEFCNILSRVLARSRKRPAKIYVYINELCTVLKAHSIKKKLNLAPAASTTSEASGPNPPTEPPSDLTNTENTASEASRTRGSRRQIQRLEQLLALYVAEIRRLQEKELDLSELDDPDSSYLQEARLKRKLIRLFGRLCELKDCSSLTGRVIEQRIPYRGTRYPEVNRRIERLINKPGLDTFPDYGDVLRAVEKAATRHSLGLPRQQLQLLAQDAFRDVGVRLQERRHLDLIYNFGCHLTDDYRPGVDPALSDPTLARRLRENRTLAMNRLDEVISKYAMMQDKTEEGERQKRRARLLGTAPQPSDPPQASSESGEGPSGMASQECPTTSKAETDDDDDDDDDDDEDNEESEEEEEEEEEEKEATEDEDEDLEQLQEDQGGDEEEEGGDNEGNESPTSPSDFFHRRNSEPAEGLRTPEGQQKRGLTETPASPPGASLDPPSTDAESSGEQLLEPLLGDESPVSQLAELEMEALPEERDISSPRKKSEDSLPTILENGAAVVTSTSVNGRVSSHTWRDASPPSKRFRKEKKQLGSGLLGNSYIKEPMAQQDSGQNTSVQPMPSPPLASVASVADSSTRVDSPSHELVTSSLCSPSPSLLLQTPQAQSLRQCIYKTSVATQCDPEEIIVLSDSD

The experiment addresses endogenous p62 (mouse striatum) (mouse (endogenous in striatum)) (UniProt Q64337). The experiment is described as follows: co-IP; endogenous proteins, mouse (8-week) striatal lysates; IP with anti-p62 antibody, Flag antibody as control; probed with anti-DAXX.

Results are given in words; binding and its absence hold for the method and conditions named. In cells and extracts the contact can be indirect. Some entries that bind do so weakly or less than the wild type.

In the case of “endogenous DAXX (mouse striatum) (from UniProt O35613 1-739)”, the binding entry is “binds”.
